Residue numbers refer to the chain shown, from its start. Results are given in words; binding and its absence hold for the method and conditions named. Some binding calls cover weakened binding; strength is not graded here.

By UniProt entry, the sequences of proteins in these tests, tags left out. Where a name states a change or a piece, a line headed by the entry shows the natural chain unless it says otherwise.
UniProt Q9ULT6: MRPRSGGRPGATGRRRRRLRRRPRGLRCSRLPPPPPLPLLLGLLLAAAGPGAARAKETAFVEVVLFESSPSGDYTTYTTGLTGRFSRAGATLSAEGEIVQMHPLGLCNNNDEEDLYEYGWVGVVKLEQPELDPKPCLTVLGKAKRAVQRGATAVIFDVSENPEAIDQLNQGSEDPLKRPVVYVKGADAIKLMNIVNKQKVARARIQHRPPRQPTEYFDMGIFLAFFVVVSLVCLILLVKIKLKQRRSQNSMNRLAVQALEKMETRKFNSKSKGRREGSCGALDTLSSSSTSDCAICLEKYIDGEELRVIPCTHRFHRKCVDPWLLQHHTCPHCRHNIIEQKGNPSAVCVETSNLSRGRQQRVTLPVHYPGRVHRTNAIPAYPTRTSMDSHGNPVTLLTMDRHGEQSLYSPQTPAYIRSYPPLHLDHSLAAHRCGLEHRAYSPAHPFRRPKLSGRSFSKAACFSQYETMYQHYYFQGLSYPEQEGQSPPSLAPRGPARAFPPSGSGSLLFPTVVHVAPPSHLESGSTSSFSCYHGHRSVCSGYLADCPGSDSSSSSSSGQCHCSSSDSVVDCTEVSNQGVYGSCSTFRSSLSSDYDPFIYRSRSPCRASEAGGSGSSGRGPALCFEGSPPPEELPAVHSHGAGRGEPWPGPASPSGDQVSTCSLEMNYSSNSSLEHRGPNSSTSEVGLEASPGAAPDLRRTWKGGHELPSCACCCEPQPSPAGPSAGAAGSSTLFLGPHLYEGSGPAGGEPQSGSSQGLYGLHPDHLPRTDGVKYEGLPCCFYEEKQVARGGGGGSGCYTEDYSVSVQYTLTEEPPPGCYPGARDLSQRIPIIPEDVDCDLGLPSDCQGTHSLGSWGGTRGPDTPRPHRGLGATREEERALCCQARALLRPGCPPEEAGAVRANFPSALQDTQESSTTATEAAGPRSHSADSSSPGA

B1: Ab2 variant 2F5(3_4A4) (Fab, V domains shown)
VH: EVQLVESGGGLVKPGGSLRLSCAASGFTFSDYGIHWVRQAPGKGLEWVGRIKSKTDGGITEYAAPVKGRFTISRDDSKNTLYLQMNSLKTEDTAVYYCARAIYYLEAFDVWGQGTLVTVSS
VL: DIELTQPPSVSVSPGQTASITCSGDSLGSYYVHWYQQKPGQAPVLVIYRNKQRPSGIPERFSGSNSGNTATLTISGTQAEDDADYYCAVWDDEPHHDVFGGGTKLTVLG
B2: Ab2 variant 2B8(4_3E10) (Fab, V domains shown)
VH: B1 VH
VL: B1 VL with D82E, A88Q, V89T, D92W, E93W, P94A, H95R, D97W
B3: Ab2 variant 2H2(2_3H8) (Fab, V domains shown)
VH: EVQLVESGGGLVKPGGSLRLSCAASGFTFSNAWMSWVRQAPGKGLEWVGRIKAFKEGYITQYAASVKGRFTISRDDSKNTLYLQMNSLKTEDTAVYYCARAIYYLEAFDVWGQGTLVTVSS
VL: B1 VL with D82E, A88Q, V89T, W90Y, D92W, E93M, P94Y, H95S, H96S, D97R
B4: Ab2 variant 2G6(3_4D9) (Fab, V domains shown)
VH: B1 VH
VL: B1 VL with A88Q, V89T, W90Y, D92S, E93L, P94K, H95F, H96S, D97R
B5: Ab2 variant 2B7(3_4G1) (Fab, V domains shown)
VH: B1 VH
VL: B1 VL with V89T, W90Y, D92S, E93S, P94S, H95W, H96W, D97N
B6: Ab2 variant 2C1(2_3A5) (Fab, V domains shown)
VH: B3 VH with R50H, A53S, F54S, K55N, E56M, Y58G, I59A, T60A
VL: B1 VL with D82E, A88Q, V89T, W90Y, D92W, E93M, P94Y, H95S, H96S, D97R
B7: Ab2 variant 2A6(3_4A10) (Fab, V domains shown)
VH: B1 VH
VL: B1 VL with D82E, A88Q, V89T, W90F, D92S, E93Q, P94A, H95V, H96T, D97N
B8: Ab2 variant 1F2(3_1B1) (Fab, V domains shown)
VH: B1 VH
VL: B1 VL with D82E, A88Q, V89T, W90F, D92S, E93Q, P94A, H95V, H96T, D97N
B9: Ab2 variant 2C9(4_4E3) (Fab, V domains shown)
VH: B1 VH
VL: DIELTQPPSVSVSPGQTASITCSGDSLGSYYVHWYQQKPGQAPVLVIYRNKQRPSGIPERFSGSNSGNTATLTISGTQAEDEADYYCASYTSPINVFGGGTKLTVLG
B10: Ab2 variant 2D1(2_3A7) (Fab, V domains shown)
VH: B3 VH with R50F, I51T, A53N, F54E, K55V, E56G, I59T, Q61E
VL: B1 VL with D82E, A88Q, V89T, W90Y, D92W, E93M, P94Y, H95S, H96S, D97R
B11: Fab clone Ab2 (Fab, V domains shown)
VH: B1 VH
VL: B1 VL with D82E, A88Q, V89T, W90Y, D92W, E93M, P94Y, H95S, H96S, D97R
notes: also called parental Ab2; ZNRF3 hFab

One test addresses ZNRF3 (form used in the variant selection and the lysate ELISA not stated) (human) (UniProt Q9ULT6). The experiment in a line: ELISA with unpurified Fab lysates.
As for B1, the binding entry is “binds”.
On the same count and under the same terms, next, B2: “binds”; B3: “binds”; B4: “binds”.
The same measure, in the same setting: next, B5: “binds”; B6: “binds”.
As for B7, the binding entry is listed as “binds”.
Take B8: the binding result is “binds”.
Still for that read-out and setting: then B9, with “binds”; and B10, with “binds”.

Another test has the same target. As to the kind of experiment: ELISA; parental Fab as the reference. Background: An ELISA detects its analyte on a solid surface through an enzyme-linked reagent.
Consider B11, for which the binding result is “binds”.

The target is the same in another test. The experiment in a line: selection from the LCDR3 affinity maturation library.
As to B1, the binding entry is on record as “binds”.
The same measure, in the same setting: next, B2: “binds”; B4: “binds”; B5: “binds”.
Take B7: the binding result was “binds”.
Consider B8, for which the binding result was “binds”.
With B9, the binding entry is “binds”.

A further test shares this target. As to the kind of experiment: selection from the HCDR2 affinity maturation library.
B3: the binding result is on record as “binds”.
For the molecule B6, the binding result was “binds”.
With B10, the binding result is “binds”.

For the origin of these results see patent US20180066067A1 (Novartis, published 2018).
